The text below walks through data of PubChem BioAssay AID1487 (National Center for Advancing Translational Sciences (NCATS), 2009).

SMILES strings stand for the structures. This is one part of the list. Further columns of the screen follow, without active or inactive calls. The list favours compounds with an active or inconclusive main result. Words in brackets tell the shape of the fitted curve; partial curves, single points and poor fits give uncertain potencies.

By AC50 is commonly meant the midpoint of the concentration-response curve, whichever way the signal moves.

This assay in a line: qHTS Assay for Modulators of Lamin A Splicing. The following applies: HeLa LMNA splicing GFP/RFP minigene ratio, 48 h. In outline:
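Read-out is the ratio of GFP to DsRed2 object intensity, acquired by 488 nm laser-scanning cytometry on HeLa lamin A-EGFP minigene reporter cells. Compound incubation 48 hrs at 37 °C in Opti-MEM with 2% FBS; DMSO 0.5% final.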
(In general: qHTS replaces the single test concentration by a dilution series.)

Setting [1] is: measured here: RFP viability control channel.
The mark [2] stands for this setting: measured here: GFP splicing reporter channel.

For `CC(=O)c1cccc(S(=O)(=O)NC2CCCCCC2)c1`, the AC50 under setting [1] was 35.5 µM [rising, single point].

Take `COc1cccc(CCc2nnc(CCC(=O)N3CCCC3c3nccs3)o2)c1` (stereo not drawn): the AC50 under setting [1] was 0.158 µM [falling, full curve, poor fit].

For `S=C(Nc1ccccc1)N(Cc1ccccc1)Cc1ccncc1`, under setting [1], the AC50 was 0.0891 µM [falling, full curve, poor fit].

On to `Cc1nc(-c2cccc(S(=O)(=O)N3CCC(C(=O)NCc4ccccc4Cl)CC3)c2)no1`, for which the AC50 reads like this: under setting [2], 3.98 µM [falling, partial curve]; under setting [1], 2.51 µM [falling, full curve].

Take `S=C(N/N=C/c1ccc2ncccc2c1)Nc1ccccc1`: the AC50 under setting [1] is 0.501 µM [rising, full curve].

Regarding `COc1cccc(-c2nnc3n2N=C(C(C)(C)C)CS3)c1`, the AC50 is 15.8 µM [falling, single point] under setting [2] and 12.6 µM [falling, partial curve] under setting [1].

For the compound `COc1ccc(NC(=S)NCCCc2ccccc2)cc1`, the AC50 under setting [1] is 31.6 µM [rising, single point].

On to `Fc1ccc(C(CCCn2nnc(-c3cccnc3)n2)c2ccc(F)cc2)cc1`, for which the AC50 is, setting by setting: under setting [2], 15.8 µM [rising, partial curve]; under setting [1], 11.2 µM [rising, partial curve].

Consider `COc1ccc(N2CC(O)=C(c3nc(-c4ccc(Cl)cc4)cs3)C2=N)cc1`, for which the AC50 by setting is: under setting [2], 0.562 µM [falling, full curve, poor fit]; under setting [1], 0.562 µM [falling, full curve].

As to `Oc1ccc(CNc2ccccc2)c2cccnc12`, the AC50 under setting [1] was 31.6 µM [rising, single point].

On to `CCOC(=O)N1CCN(c2nc(-c3ccc(F)cc3)cs2)CC1`, for which the AC50 is 3.98 µM [rising, single point] under setting [2] and 20 µM [rising, single point] under setting [1].

For `CC(NC(=O)Nc1ccccc1F)C(C)(C)C` (stereo not drawn), the AC50 under setting [2] was 0.00447 µM [rising, full curve, poor fit].

Turning to `Cc1nnc(NC(=O)CSc2cn(CCNC(=O)c3ccccc3)c3ccccc23)s1`, the AC50 is, setting by setting: under setting [2], 7.08 µM [rising, partial curve, poor fit]; under setting [1], 10 µM [rising, partial curve, poor fit].

As to `C/C(Cn1nnc([N+](=O)[O-])n1)=N\NC(=O)c1ccc(Cl)c(Cl)c1`, under setting [1], the AC50 is 35.5 µM [rising, single point].

In the case of `NNc1nc2ccc(Cl)cc2s1`, under setting [1], the AC50 was 12.6 µM [rising, partial curve].

Consider `CCOC(=O)Cc1csc(NC(=O)Nc2ccccc2)n1`, for which, under setting [1], the AC50 is 31.6 µM [rising, single point].

For `NC(N)=[N+]1CCc2ccccc2C1`, the AC50 under setting [1] is 0.178 µM [rising, full curve, poor fit].

`CN(Cc1nc(-c2cccnc2)no1)S(=O)(=O)c1ccc2ccccc2c1`: under setting [2], the AC50 is 35.5 µM [rising, single point].

With `CCCn1c(SCC(=O)c2ccc3c(c2)NC(=O)CO3)nc2ccccc21`, the AC50 under setting [1] was 0.126 µM [rising, full curve, poor fit].

Take `CCCCN(CC)Cc1ccc(CNC(=O)Nc2ccc(F)cc2)o1`: the AC50 under setting [1] was 0.1 µM [rising, full curve, poor fit].

As for `COc1cccc(C(=O)N2CCN(C(=O)c3cccs3)CC2)c1OC`, under setting [1], the AC50 is 11.2 µM [rising, single point].

`CC(/C=N/Nc1nc(C)cc(C)n1)=C\c1ccc(C(C)C)cc1`: under setting [1], the AC50 was 7.94 µM [rising, partial curve].

With `CC(=O)Nc1ccc(C(=O)Nc2ccc3c(c2)N(C2CCCC2)C(=O)c2ccccc2S3)cc1`, the AC50 under setting [2] was 3.98 µM [falling, full curve, poor fit].

Consider `Nc1nc(Nc2cccc(C(F)(F)F)c2)nc(C(F)(F)F)n1`, for which the AC50 under setting [1] is 8.91 µM [falling, partial curve, poor fit].

Consider `CCOc1ccc2nc(N3C(=O)/C(=C/c4ccccc4)NC3=S)sc2c1`, for which, under setting [1], the AC50 was 10 µM [rising, partial curve].

Regarding `CC1CCc2nc(NC(=O)CN3CCN(Cc4ccc5c(c4)OCO5)CC3)sc2C1` (stereo not drawn), the AC50 under setting [1] is 14.1 µM [rising, single point].

Consider `Cc1nnc(N2CCC(C(=O)NC(C)C)CC2)c2nn(-c3ccccc3)c(C)c12`, for which the AC50 under setting [2] is 12.6 µM [rising, single point].

Consider `CCOc1ccc(CN(Cc2ccco2)S(=O)(=O)c2ccc(-n3cnnn3)c(OC)c2)cc1`, for which the AC50 by setting is: under setting [2], 12.6 µM [rising, partial curve]; under setting [1], 15.8 µM [rising, single point].

For the compound `CC(C)CC(COCc1ccc(Cl)cc1)N1CCN(C(=O)c2ccc(Cl)cc2Cl)CCC1=O` (stereo not drawn), the AC50 under setting [1] was 14.1 µM [rising, single point].

Regarding `CCOc1ccc(C(=O)Nc2ccc(-n3nncc3-c3ccc(OC)cc3)cc2)cc1`, the AC50 reads like this: under setting [2], 7.08 µM [falling, partial curve]; under setting [1], 7.08 µM [falling, partial curve].

As to `CC(=O)NC[C@H]1CN(c2ccc(N3CCOCC3)c(F)c2)C(=O)O1`, the AC50 under setting [1] is 35.5 µM [falling, single point].

Take `Cc1ccc(C(=O)c2ccccc2C(=O)OCC(=O)NCCc2ccccc2)cc1`: the AC50 under setting [1] is 0.447 µM [rising, full curve, poor fit].

Take `O=C(OCn1ncc(Cl)c(Cl)c1=O)c1cccc(C(F)(F)F)c1`: the AC50 under setting [2] is 3.55 µM [falling, full curve] and the AC50 under setting [1] is 5.62 µM [falling, full curve].

`Cc1cc(C=O)c(C)n1-c1cc(C(F)(F)F)ccc1N1CCOCC1`: the AC50 is, setting by setting: under setting [2], 20 µM [rising, partial curve, poor fit]; under setting [1], 20 µM [rising, single point].

As for `CCOC(=O)c1c(C)[nH]c(C(=O)N/N=C\c2ccccc2O)c1C`, under setting [1], the AC50 was 3.55 µM [rising, full curve].

`Cc1ccsc1/C=N\Nc1cn[nH]c(=O)c1Cl`: the AC50 by setting is: under setting [2], 3.98 µM [rising, partial curve, poor fit]; under setting [1], 2.82 µM [rising, partial curve].

As to `CC1(C)C2(C#N)C(N)=NC3(OCCO3)C12C#N` (stereo not drawn), under setting [1], the AC50 is 0.0891 µM [falling, full curve, poor fit].

As for `O=C(NCCc1ccc(F)cc1)c1cc(-c2ccncc2)nc2ccccc12`, under setting [2], the AC50 was 25.1 µM [falling, single point].

As to `COc1ccc(C(=O)/C=C/N2CCCCC2)cc1OC`, under setting [1], the AC50 is 3.16 µM [rising, partial curve].

For the compound `O=c1[nH]c2ccccc2n1CCCN1CCCCC1`, the AC50 is 6.31 µM [falling, single point] under setting [2] and 2.82 µM [falling, partial curve] under setting [1].

In the case of `O=c1c2ccccc2[nH]c(=S)n1CCN1CCC(=C(c2ccc(F)cc2)c2ccc(F)cc2)CC1`, the AC50 under setting [2] is 20 µM [rising, partial curve].

Consider `O=C(CSc1nc(-c2ccccc2)nc2cc(=O)[nH]n12)Nc1ccccc1`, for which the AC50 under setting [2] is 0.00316 µM [falling, full curve, poor fit].

As to `Cc1cccc(C(=O)Nc2nnc(COc3ccccc3)s2)c1`, the AC50 is 1.41 µM [rising, full curve] under setting [2] and 2.82 µM [rising, partial curve, poor fit] under setting [1].

Regarding `Cc1ccc(Cn2ccc(=O)c(OCc3c(Cl)cccc3Cl)c2C)cc1`, the AC50 under setting [1] was 14.1 µM [rising, single point].

As for `C/C(=N\OCC(=O)N/N=C/c1ccc(C)cc1O)c1cccs1`, the AC50 was 35.5 µM [falling, single point] under setting [2] and 35.5 µM [falling, single point] under setting [1].

Turning to `COc1ccccc1CNc1nc(S(=O)(=O)c2ccccc2)c(Cl)s1`, under setting [1], the half-maximal activity concentration (AC50) is 12.6 µM [rising, partial curve].

For the compound `CC1(C)Cc2cccc(OCC(=O)Nc3cccnc3)c2O1`, the AC50 reads like this: under setting [2], 1.41 µM [rising, partial curve, poor fit]; under setting [1], 5.62 µM [rising, partial curve, poor fit].

Regarding `O=[N+]([O-])c1ccc(Sc2ccccc2Cl)nc1`, the AC50 under setting [1] was 11.2 µM [rising, single point].

As for `O=C1C(O)=C(O)C(=O)C(O)=C1O`, the AC50 is 0.631 µM [falling, partial curve, poor fit] under setting [2] and 0.562 µM [falling, partial curve, poor fit] under setting [1].

Regarding `Cc1ccc(/C([O-])=C(/C(=S)NCc2ccccc2)[n+]2cccc(CO)c2)cc1[N+](=O)[O-]`, the AC50 under setting [2] is 0.0398 µM [falling, full curve, poor fit].

For the compound `CCOC(=O)C(Oc1ccc2c(-c3ccccc3)cc(=O)oc2c1)c1ccccc1` (stereo not drawn), the AC50 under setting [1] is 11.2 µM [rising, partial curve, poor fit].

Consider `CSCc1c(C(=O)NC2CCCc3ccccc32)oc2ccccc12` (stereo not drawn), for which the AC50 runs as follows: under setting [2], 5.01 µM [rising, partial curve, poor fit]; under setting [1], 12.6 µM [rising, partial curve, poor fit].

Turning to `CC(=O)N1CCc2cc(S(=O)(=O)NC3CCCc4ccccc43)ccc21` (stereo not drawn), the AC50 is, setting by setting: under setting [2], 5.62 µM [rising, full curve]; under setting [1], 8.91 µM [rising, partial curve].

As for `Nc1nc(SCc2c(Cl)cccc2Cl)n[nH]1`, the AC50 under setting [1] was 14.1 µM [rising, single point].

In the case of `CCN(C(=O)CSc1nc2ccccc2nc1Cc1ccc(F)cc1)c1cccc(C)c1`, the AC50 under setting [2] was 14.1 µM [rising, partial curve, poor fit] and the AC50 under setting [1] was 28.2 µM [rising, single point].

As for `NS(=O)(=O)c1cnccc1Nc1ccc(Cl)cc1`, the AC50 reads like this: under setting [2], 12.6 µM [rising, single point]; under setting [1], 15.8 µM [rising, single point].

For `CCSc1nc(N2CCOCC2)c2c(c1C#N)CCCC2`, the AC50 by setting is: under setting [2], 35.5 µM [rising, single point]; under setting [1], 35.5 µM [rising, single point].
